Measured values as given in the supplement of paper PMC10849652.
The list shows a part of the results.

The chains behind the UniProt entries cited, without tags or fusion partners. Where a name states a change or a piece, a line headed by the entry shows the natural chain unless it says otherwise.
UniProt Q96CN7: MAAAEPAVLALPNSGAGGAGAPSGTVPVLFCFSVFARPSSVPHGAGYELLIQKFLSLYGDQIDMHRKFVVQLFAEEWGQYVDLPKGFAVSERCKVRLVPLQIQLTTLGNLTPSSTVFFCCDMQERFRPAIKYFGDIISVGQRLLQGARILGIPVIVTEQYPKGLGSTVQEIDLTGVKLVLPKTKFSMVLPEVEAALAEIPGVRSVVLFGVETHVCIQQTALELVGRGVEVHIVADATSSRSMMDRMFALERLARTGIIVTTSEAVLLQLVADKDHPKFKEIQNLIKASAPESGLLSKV
UniProt Q86U28: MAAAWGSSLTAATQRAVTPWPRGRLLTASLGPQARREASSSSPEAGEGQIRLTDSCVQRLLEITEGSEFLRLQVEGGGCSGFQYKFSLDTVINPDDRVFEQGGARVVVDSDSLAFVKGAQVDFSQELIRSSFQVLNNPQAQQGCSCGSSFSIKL
UniProt Q96T52: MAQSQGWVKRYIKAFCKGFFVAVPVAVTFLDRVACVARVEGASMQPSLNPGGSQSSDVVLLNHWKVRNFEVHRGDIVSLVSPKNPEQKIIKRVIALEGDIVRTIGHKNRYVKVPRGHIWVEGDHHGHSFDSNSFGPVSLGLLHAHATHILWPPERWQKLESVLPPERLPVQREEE
UniProt Q13123, whole entry, looked up: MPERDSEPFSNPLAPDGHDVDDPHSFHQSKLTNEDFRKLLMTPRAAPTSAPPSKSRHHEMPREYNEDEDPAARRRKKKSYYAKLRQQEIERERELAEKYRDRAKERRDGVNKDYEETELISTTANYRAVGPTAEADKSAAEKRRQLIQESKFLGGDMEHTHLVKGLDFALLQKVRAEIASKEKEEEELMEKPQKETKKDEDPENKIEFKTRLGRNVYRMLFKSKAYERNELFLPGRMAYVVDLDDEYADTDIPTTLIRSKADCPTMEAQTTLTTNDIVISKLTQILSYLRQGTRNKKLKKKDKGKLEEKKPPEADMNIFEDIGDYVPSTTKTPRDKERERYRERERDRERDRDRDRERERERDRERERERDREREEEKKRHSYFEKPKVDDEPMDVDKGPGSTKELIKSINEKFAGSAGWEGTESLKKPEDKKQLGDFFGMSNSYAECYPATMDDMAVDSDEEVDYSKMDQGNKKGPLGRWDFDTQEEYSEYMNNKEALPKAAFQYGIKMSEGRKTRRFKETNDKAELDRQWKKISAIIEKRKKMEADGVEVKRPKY
UniProt P01876, whole entry, looked up: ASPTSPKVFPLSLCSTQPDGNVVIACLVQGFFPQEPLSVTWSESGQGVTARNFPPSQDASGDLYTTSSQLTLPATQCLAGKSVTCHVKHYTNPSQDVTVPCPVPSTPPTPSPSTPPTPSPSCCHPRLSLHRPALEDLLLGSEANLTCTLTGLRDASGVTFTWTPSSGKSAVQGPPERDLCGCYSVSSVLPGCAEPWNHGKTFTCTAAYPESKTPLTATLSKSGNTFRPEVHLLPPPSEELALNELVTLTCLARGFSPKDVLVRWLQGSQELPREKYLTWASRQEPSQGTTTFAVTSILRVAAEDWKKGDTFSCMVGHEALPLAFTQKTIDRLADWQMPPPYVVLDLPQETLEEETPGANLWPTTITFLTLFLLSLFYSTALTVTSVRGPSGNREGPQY
UniProt O75874, whole entry, looked up: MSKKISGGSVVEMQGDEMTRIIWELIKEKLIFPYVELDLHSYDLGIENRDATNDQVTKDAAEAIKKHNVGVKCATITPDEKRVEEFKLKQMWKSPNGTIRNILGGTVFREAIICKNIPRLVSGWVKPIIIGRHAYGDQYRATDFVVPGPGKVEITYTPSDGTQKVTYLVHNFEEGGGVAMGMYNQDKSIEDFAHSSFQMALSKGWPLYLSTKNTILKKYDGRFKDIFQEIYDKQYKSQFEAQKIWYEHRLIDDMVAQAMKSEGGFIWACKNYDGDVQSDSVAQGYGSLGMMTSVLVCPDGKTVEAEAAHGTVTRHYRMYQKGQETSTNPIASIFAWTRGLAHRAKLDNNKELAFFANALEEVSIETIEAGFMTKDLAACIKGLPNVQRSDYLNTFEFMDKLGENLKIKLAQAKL
UniProt P11717, whole entry, looked up: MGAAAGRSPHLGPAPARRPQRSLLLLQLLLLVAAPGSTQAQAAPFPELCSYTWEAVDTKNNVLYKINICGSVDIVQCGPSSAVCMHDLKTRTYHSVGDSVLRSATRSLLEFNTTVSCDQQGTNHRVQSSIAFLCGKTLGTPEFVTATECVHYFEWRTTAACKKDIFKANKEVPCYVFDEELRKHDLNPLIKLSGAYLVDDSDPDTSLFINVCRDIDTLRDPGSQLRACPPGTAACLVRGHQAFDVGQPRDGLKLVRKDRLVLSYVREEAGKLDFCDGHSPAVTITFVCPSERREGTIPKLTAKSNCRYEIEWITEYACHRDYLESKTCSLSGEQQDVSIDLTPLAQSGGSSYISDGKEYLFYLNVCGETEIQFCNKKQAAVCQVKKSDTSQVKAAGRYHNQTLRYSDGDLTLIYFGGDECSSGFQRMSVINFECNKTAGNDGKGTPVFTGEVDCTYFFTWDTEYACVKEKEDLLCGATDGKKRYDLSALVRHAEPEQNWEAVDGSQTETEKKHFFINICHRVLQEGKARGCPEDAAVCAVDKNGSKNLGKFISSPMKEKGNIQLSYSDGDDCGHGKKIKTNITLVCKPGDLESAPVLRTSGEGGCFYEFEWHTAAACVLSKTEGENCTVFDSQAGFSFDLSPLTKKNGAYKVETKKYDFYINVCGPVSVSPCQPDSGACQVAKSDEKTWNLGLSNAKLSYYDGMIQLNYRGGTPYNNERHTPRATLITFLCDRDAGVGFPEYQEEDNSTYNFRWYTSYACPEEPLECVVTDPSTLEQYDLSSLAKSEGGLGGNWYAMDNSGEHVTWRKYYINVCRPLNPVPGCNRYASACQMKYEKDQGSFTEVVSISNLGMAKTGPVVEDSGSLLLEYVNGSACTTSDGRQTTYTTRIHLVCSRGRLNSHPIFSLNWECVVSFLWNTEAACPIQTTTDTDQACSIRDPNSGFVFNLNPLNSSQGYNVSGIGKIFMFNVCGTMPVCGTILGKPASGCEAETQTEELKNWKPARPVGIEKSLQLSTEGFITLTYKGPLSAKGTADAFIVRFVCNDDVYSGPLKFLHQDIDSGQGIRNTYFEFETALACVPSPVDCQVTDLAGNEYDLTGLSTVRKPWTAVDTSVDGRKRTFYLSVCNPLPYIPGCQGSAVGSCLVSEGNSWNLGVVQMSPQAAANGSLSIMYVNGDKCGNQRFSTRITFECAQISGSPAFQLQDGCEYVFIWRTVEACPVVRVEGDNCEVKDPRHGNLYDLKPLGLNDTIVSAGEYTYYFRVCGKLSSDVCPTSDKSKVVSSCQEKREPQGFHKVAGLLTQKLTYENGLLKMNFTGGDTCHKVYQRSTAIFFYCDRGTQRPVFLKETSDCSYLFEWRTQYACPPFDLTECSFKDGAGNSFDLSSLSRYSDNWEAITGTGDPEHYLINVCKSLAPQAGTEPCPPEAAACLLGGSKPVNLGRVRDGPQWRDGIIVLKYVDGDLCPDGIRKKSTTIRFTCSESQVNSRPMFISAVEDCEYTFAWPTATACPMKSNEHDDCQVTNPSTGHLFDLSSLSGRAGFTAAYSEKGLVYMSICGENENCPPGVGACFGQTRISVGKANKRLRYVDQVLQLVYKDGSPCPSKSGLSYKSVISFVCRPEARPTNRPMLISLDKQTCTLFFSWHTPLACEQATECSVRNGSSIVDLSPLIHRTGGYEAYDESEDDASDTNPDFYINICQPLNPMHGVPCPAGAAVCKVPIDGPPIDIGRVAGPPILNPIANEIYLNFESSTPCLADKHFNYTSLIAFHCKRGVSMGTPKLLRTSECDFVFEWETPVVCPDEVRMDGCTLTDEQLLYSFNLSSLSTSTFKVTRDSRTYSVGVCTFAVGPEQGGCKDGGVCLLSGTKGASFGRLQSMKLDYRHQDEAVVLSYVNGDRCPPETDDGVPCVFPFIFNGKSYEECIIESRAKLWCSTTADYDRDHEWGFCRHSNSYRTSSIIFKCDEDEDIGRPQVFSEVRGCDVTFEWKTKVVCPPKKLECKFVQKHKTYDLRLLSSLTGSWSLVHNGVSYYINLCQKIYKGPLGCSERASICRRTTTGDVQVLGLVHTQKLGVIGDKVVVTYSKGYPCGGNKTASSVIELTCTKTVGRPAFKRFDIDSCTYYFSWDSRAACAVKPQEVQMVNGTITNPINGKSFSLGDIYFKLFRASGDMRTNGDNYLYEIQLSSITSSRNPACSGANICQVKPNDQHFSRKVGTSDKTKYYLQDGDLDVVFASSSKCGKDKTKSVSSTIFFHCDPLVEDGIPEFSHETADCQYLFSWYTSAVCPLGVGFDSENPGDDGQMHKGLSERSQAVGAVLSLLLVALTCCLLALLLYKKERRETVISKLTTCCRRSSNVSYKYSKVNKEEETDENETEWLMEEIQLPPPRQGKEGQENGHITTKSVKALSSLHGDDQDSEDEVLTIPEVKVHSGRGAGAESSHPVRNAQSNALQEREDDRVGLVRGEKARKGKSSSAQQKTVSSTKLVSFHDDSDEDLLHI
UniProt Q14653: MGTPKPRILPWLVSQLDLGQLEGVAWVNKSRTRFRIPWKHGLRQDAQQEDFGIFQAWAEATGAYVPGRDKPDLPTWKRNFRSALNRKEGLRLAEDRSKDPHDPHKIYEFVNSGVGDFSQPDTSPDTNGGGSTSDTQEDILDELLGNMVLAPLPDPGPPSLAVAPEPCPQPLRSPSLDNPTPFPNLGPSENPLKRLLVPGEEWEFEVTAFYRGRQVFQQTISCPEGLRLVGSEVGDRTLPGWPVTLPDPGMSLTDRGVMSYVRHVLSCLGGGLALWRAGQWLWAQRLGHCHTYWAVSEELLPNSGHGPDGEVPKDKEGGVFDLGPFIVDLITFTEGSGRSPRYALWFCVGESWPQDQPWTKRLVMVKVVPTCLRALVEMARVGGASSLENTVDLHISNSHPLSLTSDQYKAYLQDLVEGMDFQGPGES

Key:
Test in all cases: log2 fold change, soluble protein after heating vs DMSO (PISA); higher = thermal stabilisation; K562 cells, 10 uM, 30 min; active = over 0.2 and 3.5 SD of the protein, either way, in both replicates (recomputed)
[1] = compound: Cc1ccc(NC(=O)c2ccc(CN3CC[C@H](N(C)C)C3)c(C(F)(F)F)c2)cc1Nc1nccc(-c2cncnc2)n1 [bafetinib]
Outline: (§1)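 K562 cells (2×10^6 cells/mL) were treated with 10 μM compound for 30 min, and aliquots were heated for 3 min over 48°C-58°C. Pooled aliquots were extracted in PBS with 0.5% NP-40 at 4°C, and the supernatant after 21,000xg for 90 min was measured by TMTpro 16plex LC-MS/MS with channel sums equalised. Reported thermal stability, relative to control samples and from duplicates, is a log2 fold change.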

[2] = compound: Cc1cccc(CC(=O)N2CCc3c2ccc(-c2cn(C)c4ncnc(N)c24)c3F)n1
Outline: as §1

[3] = compound: Cc1cn(-c2cc(NC(=O)c3ccc(C)c(Nc4nccc(-c5cccnc5)n4)c3)cc(C(F)(F)F)c2)cn1 [nilotinib]
Outline: as §1

[4] = compound: Cc1nc(Nc2n[nH]c3c2CN(C(=O)N[C@H](CN(C)C)c2ccccc2)C3(C)C)c2sccc2n1
Outline: as §1

[5] = compound: Cc1nc(Nc2ncc(C(=O)Nc3c(C)cccc3Cl)s2)cc(N2CCN(CCO)CC2)n1 [dasatinib]
Outline: as §1

[6] = compound: Cc1ncc(-c2ccnc(Nc3ccc(S(C)(=O)=O)cc3)n2)n1C(C)C
Outline: as §1

[7] = compound: Cn1cc(-c2ccc3c(c2)CCN3C(=O)Cc2cccc(C(F)(F)F)c2)c2c(N)ncnc21
Outline: as §1

[8] = compound: Cn1cc(-c2ccc3nnc(C(F)(F)c4ccc5ncccc5c4)n3n2)cn1
Outline: as §1

[9] = compound: Cn1cncc1[C@@](N)(c1ccc(Cl)cc1)c1ccc2c(c1)c(-c1cccc(Cl)c1)cc(=O)n2C [tipifarnib]
Outline: as §1

[10] = compound: FC(F)(F)c1ccc(/C=C/c2nc(COc3ccc(CCCCn4ccnn4)cc3)co2)cc1 [mubritinib]
Outline: as §1

[11] = compound: NC(=O)Nc1cc(-c2cccc(F)c2)sc1C(=O)N[C@H]1CCCNC1
Outline: as §1

[12] = compound: NC(=O)c1cnc(N[C@@H]2CCCC[C@@H]2N)nc1Nc1cccc(-n2nccn2)c1
Outline: as §1

[13] = compound: NC1(c2ccc(-c3nc4ccn5c(=O)[nH]nc5c4cc3-c3ccccc3)cc2)CCC1
Outline: as §1

[14] = compound: NCC(=O)Nc1ccc(-n2nc(C(F)(F)F)cc2-c2ccc3c(ccc4ccccc43)c2)cc1
Outline: as §1

[15] = compound: Nc1ccccc1NC(=O)c1ccc(CNC(=O)OCc2cccnc2)cc1 [entinostat]
Outline: as §1

[16] = compound: O=C(CCCCCCC(=O)Nc1ccccc1)NO [vorinostat]
Outline: as §1

[17] = compound: O=C(CCCCCCNC(=O)c1cnc(N(c2ccccc2)c2ccccc2Cl)nc1)NO [citarinostat]
Outline: as §1

[18] = compound: O=C(O)c1ccc2c(c1)nc(Nc1cccc(Cl)c1)c1ccncc12 [silmitasertib]
Outline: as §1

[19] = compound: O=C1NC(=O)C(c2cnc3ccccn23)=C1c1cn2c3c(cc(F)cc13)CN(C(=O)N1CCCCC1)CC2
Outline: as §1

[20] = compound: c1cc(OCCN2CCCCC2)cc(-c2n[nH]c3ccc(-c4nnc[nH]4)cc23)c1
Outline: as §1

Measured: log2 fold change

IMPA1 (UniProt E5RIP7)
inactive: [1] 0.034

ISOC1 (UniProt Q96CN7)
inactive: [1] -0.031 | [2] -0.065 | [3] -0.002 | [4] -0.009 | [5] 0.06 | [6] 0.017 | [7] 0.03 | [8] 0 | [9] 0.01 | [10] 0.031 | [11] 0.028 | [12] -0.015 | [13] 0.019 | [14] -0.017 | [15] -0.033 | [16] -0.031 | [17] -0.02 | [18] -0.03 | [19] -0.044 | [20] 0.051

ISCA2 (UniProt Q86U28)
inactive: [1] -0.041 | [2] -0.023 | [3] 0.006 | [4] 0.011 | [5] -0.031 | [6] -0.02 | [7] 0.082 | [8] 0.06 | [9] 0.063 | [10] 0.004 | [11] -0.044 | [12] -0.072 | [13] -0.113 | [14] -0.065 | [15] 0 | [16] 0.039 | [17] 0.033 | [18] -0.025 | [19] -0.112 | [20] -0.033

IMMP2L (UniProt Q96T52)
inactive: [1] -0.058 | [2] -0.01 | [3] -0.054 | [4] -0.021 | [5] 0.06 | [6] 0.044 | [7] -0.001 | [8] -0.008 | [9] 0.035 | [10] 0.099 | [11] -0.083 | [12] -0.035 | [13] -0.007 | [14] -0.033 | [15] -0.018 | [16] 0.04 | [17] 0.036 | [18] 0.006 | [19] -0.084 | [20] -0.026

IK (UniProt Q13123)
inactive: [1] 0.013 | [2] -0.01 | [3] -0.062 | [4] -0.067 | [5] -0.025 | [6] 0.037 | [7] -0.007 | [8] -0.109 | [9] 0.003 | [10] -0.067 | [11] -0.016 | [12] 0.119 | [13] 0.06 | [14] -0.08 | [15] 0.008 | [16] 0.026 | [17] -0.235 | [18] 0.132 | [19] 0.017 | [20] -0.078

IGHA1 (UniProt P01876)
inactive: [1] 1.09 | [2] -0.261 | [3] 0.899 | [4] -0.043 | [5] -0.46 | [6] 0.524 | [7] -0.349 | [8] 0.259 | [9] 0.207 | [10] -0.298 | [11] 1.86 | [12] 0.746 | [13] 0.031 | [14] -0.122 | [15] 0.007 | [16] -0.002 | [17] 0.567 | [18] 0.921 | [19] 0.03 | [20] 0.018

IDH1 (UniProt O75874)
inactive: [1] -0.02 | [2] 0.002 | [3] 0.002 | [4] 0.017 | [5] 0.057 | [6] -0.009 | [7] 0.008 | [8] -0.019 | [9] 0.008 | [10] -0.018 | [11] 0.033 | [12] 0.013 | [13] -0.007 | [14] 0.013 | [15] -0.013 | [16] -0.004 | [17] 0.012 | [18] 0.006 | [19] -0.044 | [20] -0.034

IGF2R (UniProt P11717)
inactive: [2] 0.021 | [3] -0.02 | [4] -0.087 | [5] -0.023 | [6] 0.021 | [7] 0 | [8] 0.023 | [9] 0.045 | [10] 0.003 | [11] -0.032 | [12] 0.03 | [14] 0.006 | [15] -0.008 | [16] 0 | [17] 0.07 | [18] 0.021 | [19] -0.063 | [20] -0.184
active: [1] -0.338 | [13] -0.546

IRF3 (UniProt Q14653)
inactive: [1] 0.033 | [2] 0.023 | [3] 0.066 | [4] -0.191 | [5] -0.1 | [6] -0.04 | [7] 0.106 | [8] 0.005 | [9] -0.023 | [10] 0.039 | [12] -0.021 | [13] -0.021 | [14] -0.022 | [15] -0.078 | [16] 0.06 | [17] 0.028 | [18] -0.044 | [19] -0.047 | [20] -0.028
active: [11] 0.221
